These are yes or no findings as the source states them, for the method shown. In cells and extracts the contact can be indirect. Some results given as binding are weak or reduced against the parent protein; the word gives no strength. For part of these data: Where a sequence is shown, tags or fusion partners need not be part of it.
B1: GFP-SNX4 (human sorting nexin-4 tagged with green fluorescent protein at its N-terminus) (protein, UniProt O95219-1 1-450)
chain: MEQAPPDPERQLQPAPLEPLGSPDAGLGAAVGKEAEGAGEESSGVDTMTHNNFWLKKIEISVSEAEKRTGRNAMNMQETYTAYLIETRSVEHTDGQSVLTDSLWRRYSEFELLRSYLLVYYPHIVVPPLPEKRAEFVWHKLSADNMDPDFVERRRIGLENFLLRIASHPILCRDKIFYLFLTQEGNWKETVNETGFQLKADSRLKALNATFRVKNPDKRFTDLKHYSDELQSVISHLLRVRARVADRLYGVYKVHGNYGRVFSEWSAIEKEMGDGLQSAGHHMDVYASSIDDILEDEEHYADQLKEYLFYAEALRAVCRKHELMQYDLEMAAQDLASKKQQCEELVTGTVRTFSLKGMTTKLFGQETPEQREARIKVLEEQINEGEQQLKSKNLEGREFVKNAWADIERFKEQKNRDLKEALISYAVMQISMCKKGIQVWTNAKECFSKM
B2: endogenous sorting nexin-4 (SNX4) of mouse brain (protein, UniProt Q91YJ2 1-450)
chain: MEQAPPDPEKLLQPGPLEPLGGPGAVLEAAVGEENEGTREDGSGVDTMTGNNFWLKKIEISVSEAEKRTGRNAVNMQETYTAYLIETRSVEHADGQSVLTDSLWRRYSEFELLRNYLLVYYPHVVVPPLPEKRAEFVWHKLSADNMDPDFVERRRVGLENFLLRVASHPVLCRDKIFYSFLTQEGNWKETVNETGFQLKADSRLKALNATFRVKNPDKRFTELRHYSDELQSVISHLLRVRARVADRLYGVYKVHGNYGRVFSEWSAIEKEMGDGLQSAGHHMDVYASSIDDILEDEEHYADQLKEYLFYAEALRAVCRKHELMQYDLETAAQDLAAKKQQCEELATGTVRTFSLKGMTTKLFGQETPEQREARIKVLEEQINEGEQQLKSKNLEGREFVKNAWADIERFKEQKNRDLKEALISYAVMQISMCKKGIQVWTNAKECFSKM

Sequences of proteins named here, by UniProt entry; tags and fusion partners are left off. Residues count along the entry.
UniProt P56817, residues 46-501: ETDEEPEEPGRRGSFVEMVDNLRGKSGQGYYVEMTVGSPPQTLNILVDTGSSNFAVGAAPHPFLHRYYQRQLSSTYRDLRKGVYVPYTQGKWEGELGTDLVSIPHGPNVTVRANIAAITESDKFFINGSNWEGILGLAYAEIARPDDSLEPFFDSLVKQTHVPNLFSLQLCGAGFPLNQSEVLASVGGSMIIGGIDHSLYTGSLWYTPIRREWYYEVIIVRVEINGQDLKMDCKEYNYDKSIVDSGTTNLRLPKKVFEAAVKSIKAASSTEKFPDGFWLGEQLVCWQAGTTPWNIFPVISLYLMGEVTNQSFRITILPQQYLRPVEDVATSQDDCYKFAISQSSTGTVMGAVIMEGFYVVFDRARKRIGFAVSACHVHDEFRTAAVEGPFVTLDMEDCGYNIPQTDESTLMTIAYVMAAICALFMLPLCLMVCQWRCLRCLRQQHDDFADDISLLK
UniProt P56818, residues 46-501: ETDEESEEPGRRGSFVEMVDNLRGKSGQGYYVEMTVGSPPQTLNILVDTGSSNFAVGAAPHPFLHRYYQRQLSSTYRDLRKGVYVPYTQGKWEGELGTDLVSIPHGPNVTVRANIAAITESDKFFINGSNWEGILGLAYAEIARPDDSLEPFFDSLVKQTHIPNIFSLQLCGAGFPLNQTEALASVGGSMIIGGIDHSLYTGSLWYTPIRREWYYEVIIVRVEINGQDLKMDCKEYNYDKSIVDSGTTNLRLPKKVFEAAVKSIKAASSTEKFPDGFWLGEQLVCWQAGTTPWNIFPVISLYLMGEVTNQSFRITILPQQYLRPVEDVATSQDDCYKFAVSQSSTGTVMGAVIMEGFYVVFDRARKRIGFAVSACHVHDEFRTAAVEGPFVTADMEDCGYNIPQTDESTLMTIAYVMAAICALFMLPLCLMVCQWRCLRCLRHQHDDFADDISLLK

Columns and labels:
[1] = target: BACE1-HA (β-site amyloid precursor protein-cleaving enzyme 1 with hemagglutinin tag) (UniProt P56817); assay: co-IP; HEK293 cells cotransfected with BACE1-HA and mock-GFP or SNX4-GFP; lysate precipitated with anti-HA antibody, protein G sepharose; blots for HA, GFP and MHC1
[2] = target: BACE1-HA (β-site amyloid precursor protein-cleaving enzyme 1 with hemagglutinin tag) (UniProt P56817); assay: co-IP; mouse cortical neurons cotransfected with BACE1-HA and mock-GFP or SNX4-GFP; lysate precipitated with anti-HA antibody, protein G sepharose; blots for HA, GFP and MHC1
[3] = target: endogenous β-site amyloid precursor protein-cleaving enzyme 1 (BACE1) of mouse brain (mouse (endogenous in brain tissue)) (UniProt P56818); assay: co-IP; mouse brain lysate precipitated with anti-BACE1 antibody; blots for BACE1 and SNX4; endogenous proteins

Binder | binding [1] | binding [2] | binding [3]
B1 | binds | binds | –
B2 | – | – | binds

From article PMC5251330
